Reference: article PMC12340889

Test system: DriD(R121E-R122E-P125E-E128R) (Caulobacter crescentus)
Assay: fluorescence polarization
Conditions: 100 uM ssDNA effector 5'-TGACTAT-3', complex preformed before alphaCTD titration, FP: 25 mM Tris-HCl pH 7.5, 150 mM NaCl, 2.5% glycerol, temperature not stated, recombinant protein, protein details: N-terminal His (pET15b)

Does “ATACGACAGTAACTGTCGTAT (double strand) [F-DriD target DNA]” bind?
Result: binds

For at least one entry, the source does not settle the construct or the ends of the probe. At least one verdict rests on a figure or table, not on a statement of the authors.
